Laboratory results reported in the supplement of paper PMC10849652.
Some of the results follow. Residues, ends and D or L forms follow the SMILES beside them. *: point of attachment. Cbz = O=C(OCc1ccccc1)*

By UniProt entry, the sequences of proteins in these tests, tags left out. Where a name states a change or a piece, a line headed by the entry shows the natural chain unless it says otherwise.
UniProt P04004: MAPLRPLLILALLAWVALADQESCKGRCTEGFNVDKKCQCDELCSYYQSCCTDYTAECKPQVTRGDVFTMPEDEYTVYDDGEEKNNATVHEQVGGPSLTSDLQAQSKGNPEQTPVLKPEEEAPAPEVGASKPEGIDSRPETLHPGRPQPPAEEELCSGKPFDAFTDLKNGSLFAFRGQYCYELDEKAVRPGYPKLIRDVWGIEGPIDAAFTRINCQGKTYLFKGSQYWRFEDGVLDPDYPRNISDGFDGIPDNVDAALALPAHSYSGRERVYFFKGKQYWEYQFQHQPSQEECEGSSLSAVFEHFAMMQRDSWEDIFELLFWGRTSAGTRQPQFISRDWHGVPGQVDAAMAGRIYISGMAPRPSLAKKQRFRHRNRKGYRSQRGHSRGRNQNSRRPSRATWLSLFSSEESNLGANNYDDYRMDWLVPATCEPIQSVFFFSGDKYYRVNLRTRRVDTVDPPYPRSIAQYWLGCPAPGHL
UniProt Q5JSH3: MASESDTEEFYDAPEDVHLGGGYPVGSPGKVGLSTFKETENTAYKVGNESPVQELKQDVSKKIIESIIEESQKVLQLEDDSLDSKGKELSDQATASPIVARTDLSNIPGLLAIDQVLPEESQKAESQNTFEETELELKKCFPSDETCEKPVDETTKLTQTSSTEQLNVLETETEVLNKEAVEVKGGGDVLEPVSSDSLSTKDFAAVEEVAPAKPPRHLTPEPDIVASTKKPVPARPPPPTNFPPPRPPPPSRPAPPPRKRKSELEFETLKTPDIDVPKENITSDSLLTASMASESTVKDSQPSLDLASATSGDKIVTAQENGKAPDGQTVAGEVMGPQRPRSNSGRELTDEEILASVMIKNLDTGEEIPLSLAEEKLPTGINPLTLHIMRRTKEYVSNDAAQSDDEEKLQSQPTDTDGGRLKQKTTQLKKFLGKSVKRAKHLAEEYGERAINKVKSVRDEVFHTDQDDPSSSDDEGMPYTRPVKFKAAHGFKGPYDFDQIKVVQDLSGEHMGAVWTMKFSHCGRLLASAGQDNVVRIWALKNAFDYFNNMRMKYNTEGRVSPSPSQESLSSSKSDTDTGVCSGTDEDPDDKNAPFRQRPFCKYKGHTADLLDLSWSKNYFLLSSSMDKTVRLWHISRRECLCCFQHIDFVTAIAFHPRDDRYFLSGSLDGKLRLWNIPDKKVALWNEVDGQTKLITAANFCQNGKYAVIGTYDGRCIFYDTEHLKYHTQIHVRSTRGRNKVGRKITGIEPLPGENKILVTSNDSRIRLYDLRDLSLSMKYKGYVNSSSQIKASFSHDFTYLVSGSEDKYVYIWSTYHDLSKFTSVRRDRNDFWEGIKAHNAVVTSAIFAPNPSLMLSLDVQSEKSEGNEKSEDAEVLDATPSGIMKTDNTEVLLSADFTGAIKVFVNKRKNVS
UniProt Q9H6Y2: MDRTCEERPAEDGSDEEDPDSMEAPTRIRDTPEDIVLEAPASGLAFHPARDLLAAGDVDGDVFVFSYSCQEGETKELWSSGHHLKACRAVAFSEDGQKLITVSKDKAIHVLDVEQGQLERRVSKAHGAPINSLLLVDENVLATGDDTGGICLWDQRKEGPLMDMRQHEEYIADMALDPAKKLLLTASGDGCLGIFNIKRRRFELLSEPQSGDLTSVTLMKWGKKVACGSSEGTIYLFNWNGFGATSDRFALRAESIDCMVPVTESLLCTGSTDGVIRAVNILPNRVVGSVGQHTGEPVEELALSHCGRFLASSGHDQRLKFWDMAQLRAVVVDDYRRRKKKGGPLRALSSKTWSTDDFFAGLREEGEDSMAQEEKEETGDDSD
UniProt Q8TBZ3: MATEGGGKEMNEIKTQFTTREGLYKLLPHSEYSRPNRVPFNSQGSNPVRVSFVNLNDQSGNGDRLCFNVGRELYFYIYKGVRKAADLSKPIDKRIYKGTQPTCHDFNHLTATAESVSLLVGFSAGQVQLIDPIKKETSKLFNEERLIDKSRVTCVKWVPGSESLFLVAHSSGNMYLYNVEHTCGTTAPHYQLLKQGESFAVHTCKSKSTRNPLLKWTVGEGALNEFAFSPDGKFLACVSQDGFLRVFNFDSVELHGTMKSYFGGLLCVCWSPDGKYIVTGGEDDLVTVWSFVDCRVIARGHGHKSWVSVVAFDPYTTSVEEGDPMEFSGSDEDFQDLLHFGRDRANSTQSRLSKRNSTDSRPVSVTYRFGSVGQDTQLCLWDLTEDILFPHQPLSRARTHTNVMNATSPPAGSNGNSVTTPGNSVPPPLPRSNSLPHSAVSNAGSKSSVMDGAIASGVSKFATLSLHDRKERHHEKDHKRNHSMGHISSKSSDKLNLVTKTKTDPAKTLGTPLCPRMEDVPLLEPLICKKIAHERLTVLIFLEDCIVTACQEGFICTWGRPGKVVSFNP
UniProt P23381: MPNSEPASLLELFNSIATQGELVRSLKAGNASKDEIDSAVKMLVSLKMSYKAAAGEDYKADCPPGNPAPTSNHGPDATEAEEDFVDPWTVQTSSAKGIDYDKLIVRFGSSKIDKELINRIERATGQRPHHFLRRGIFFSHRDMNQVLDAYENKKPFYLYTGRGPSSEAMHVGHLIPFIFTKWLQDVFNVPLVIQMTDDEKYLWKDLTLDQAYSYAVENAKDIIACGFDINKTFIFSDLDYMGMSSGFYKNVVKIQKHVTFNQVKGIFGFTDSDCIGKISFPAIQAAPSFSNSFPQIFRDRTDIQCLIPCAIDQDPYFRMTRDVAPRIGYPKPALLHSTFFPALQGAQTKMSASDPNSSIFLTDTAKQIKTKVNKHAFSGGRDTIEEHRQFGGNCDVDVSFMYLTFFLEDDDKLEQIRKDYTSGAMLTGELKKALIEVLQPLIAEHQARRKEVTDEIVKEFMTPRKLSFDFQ
UniProt Q8IV63: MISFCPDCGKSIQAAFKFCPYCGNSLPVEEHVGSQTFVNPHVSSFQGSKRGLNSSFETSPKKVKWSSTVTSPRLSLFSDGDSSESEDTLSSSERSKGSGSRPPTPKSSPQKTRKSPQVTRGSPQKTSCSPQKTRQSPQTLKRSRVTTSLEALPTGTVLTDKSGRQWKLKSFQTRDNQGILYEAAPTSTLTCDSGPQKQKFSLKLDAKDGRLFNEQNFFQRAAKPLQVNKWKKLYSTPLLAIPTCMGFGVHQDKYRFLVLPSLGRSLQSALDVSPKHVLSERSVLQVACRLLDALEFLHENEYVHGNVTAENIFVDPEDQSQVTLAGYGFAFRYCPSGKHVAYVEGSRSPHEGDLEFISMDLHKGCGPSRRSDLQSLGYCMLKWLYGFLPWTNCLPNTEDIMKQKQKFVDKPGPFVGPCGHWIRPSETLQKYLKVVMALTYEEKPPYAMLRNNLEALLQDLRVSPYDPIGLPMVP
UniProt Q96MX6, whole entry, looked up: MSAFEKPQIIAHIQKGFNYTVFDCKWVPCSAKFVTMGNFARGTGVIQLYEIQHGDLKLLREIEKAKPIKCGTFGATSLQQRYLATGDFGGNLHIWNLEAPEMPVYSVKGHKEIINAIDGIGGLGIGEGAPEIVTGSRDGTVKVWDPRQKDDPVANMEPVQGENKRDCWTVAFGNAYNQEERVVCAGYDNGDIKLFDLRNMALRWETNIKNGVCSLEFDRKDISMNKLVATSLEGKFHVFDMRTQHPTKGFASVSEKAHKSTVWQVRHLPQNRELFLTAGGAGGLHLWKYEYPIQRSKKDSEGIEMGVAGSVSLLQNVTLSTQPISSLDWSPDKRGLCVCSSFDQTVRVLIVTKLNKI
UniProt Q96JC1: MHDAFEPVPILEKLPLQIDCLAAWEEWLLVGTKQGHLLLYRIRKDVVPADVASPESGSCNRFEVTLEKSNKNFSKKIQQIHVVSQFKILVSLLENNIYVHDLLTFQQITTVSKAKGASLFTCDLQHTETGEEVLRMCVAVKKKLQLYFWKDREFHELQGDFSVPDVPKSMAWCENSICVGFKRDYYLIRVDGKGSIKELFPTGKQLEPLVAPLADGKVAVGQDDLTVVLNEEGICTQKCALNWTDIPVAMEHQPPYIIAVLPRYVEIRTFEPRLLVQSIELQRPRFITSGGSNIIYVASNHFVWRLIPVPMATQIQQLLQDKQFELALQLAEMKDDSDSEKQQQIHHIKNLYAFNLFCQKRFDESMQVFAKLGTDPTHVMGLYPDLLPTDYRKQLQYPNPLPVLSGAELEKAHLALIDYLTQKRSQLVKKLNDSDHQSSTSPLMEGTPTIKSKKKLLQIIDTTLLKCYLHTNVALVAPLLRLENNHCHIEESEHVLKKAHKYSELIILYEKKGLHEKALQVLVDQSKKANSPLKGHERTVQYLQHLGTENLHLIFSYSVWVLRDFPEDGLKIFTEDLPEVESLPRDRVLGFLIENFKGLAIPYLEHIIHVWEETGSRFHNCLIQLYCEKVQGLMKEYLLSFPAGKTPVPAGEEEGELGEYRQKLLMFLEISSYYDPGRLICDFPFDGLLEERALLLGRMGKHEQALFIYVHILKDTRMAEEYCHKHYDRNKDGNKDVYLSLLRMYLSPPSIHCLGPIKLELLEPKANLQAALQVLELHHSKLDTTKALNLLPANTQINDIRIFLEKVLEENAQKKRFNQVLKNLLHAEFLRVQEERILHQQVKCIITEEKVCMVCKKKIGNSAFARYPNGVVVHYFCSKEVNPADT
UniProt Q969T9: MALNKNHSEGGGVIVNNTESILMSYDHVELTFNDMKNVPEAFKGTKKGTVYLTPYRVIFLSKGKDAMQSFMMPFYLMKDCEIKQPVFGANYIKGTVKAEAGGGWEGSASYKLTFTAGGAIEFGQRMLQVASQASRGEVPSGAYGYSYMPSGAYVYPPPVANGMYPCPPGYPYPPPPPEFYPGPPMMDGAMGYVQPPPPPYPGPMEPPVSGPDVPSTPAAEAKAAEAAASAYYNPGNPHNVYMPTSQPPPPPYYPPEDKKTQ
UniProt Q8TAF3: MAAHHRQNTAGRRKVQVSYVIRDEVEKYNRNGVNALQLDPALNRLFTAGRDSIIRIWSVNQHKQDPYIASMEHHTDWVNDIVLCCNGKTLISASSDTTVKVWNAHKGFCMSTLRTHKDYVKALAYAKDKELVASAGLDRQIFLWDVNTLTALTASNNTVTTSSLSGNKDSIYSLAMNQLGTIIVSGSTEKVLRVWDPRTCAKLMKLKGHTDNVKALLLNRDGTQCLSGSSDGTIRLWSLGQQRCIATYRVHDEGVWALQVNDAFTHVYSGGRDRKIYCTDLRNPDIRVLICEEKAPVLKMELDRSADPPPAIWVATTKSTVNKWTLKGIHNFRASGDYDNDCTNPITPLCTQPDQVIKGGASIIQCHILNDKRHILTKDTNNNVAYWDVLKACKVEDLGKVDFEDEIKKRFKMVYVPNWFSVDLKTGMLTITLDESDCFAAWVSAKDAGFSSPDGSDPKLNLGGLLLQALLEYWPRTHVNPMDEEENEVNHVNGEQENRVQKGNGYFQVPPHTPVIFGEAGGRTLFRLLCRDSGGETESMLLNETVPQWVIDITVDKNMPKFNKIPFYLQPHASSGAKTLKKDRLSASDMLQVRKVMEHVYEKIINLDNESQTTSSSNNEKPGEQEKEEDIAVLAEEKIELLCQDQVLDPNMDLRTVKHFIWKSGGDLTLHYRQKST
UniProt Q9BRG1: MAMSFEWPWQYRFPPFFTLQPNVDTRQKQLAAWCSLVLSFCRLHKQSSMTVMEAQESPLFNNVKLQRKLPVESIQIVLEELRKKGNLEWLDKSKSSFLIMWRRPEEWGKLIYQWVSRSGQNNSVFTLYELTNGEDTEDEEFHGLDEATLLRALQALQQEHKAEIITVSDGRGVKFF
UniProt Q9Y4P8: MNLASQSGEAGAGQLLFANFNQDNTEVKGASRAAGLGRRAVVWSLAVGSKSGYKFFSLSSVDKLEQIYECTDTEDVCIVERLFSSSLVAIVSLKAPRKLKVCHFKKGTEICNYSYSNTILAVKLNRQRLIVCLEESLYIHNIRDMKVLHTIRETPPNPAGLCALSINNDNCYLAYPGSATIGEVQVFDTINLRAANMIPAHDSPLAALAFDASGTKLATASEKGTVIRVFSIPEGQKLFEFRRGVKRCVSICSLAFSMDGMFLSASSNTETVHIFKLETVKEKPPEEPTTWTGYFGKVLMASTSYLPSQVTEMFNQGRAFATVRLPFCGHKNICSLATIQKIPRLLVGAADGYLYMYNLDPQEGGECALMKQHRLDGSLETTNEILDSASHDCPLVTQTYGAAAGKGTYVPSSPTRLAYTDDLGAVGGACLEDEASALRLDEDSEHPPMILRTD

Legend:
Assay in all cases: log2 fold change, soluble protein after heating vs DMSO (PISA); higher = thermal stabilisation; K562 cells, 10 uM, 30 min; active = over 0.2 and 3.5 SD of the protein, either way, in both replicates (recomputed)
erlotinib = compound: C#Cc1cccc(Nc2ncnc3cc(OCCOC)c(OCCOC)cc23)c1 [erlotinib]
How it was run: (§1)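 K562 cells at 2×10^6 cells/mL were treated for 30 min with 10 μM compound, and aliquots were heated for 3 min over 48°C-58°C before pooling. Extraction used PBS with 0.5% NP-40 at 4°C, and soluble protein was the supernatant after 21,000xg for 90 min, measured by TMTpro 16plex LC-MS/MS with channel sums equalised. Thermal stability values, relative to control samples and from duplicates, are log2 fold changes.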

[1] = compound: C/C(=N\NC(=O)C1=CC(=CC=C1)S(=O)(=O)N2CCOCC2)/C3=C(C=CC(=C3)Cl)O
How it was run: as §1

[2] = compound: C1=CC(=C(C=C1Cl)C2=NC3=NC=CN=C3C(=N2)NC4=CC=NC=C4)F
How it was run: as §1

[3] = compound: C1=CC(=CC=C1C2=NC3=C(N2)C=C(C=C3)C(=O)N)OC4=CC=C(C=C4)Cl
How it was run: as §1

[4] = compound: C1=CC2=C(C=CC(=C2)/C=C\3/C(=O)NC(=NCC4=CC=CS4)S3)N=C1
How it was run: as §1

[5] = compound: C1=CC2=NC=CN=C2C=C1/C=C/3\C(=O)NC(=O)S3
How it was run: as §1

[6] = compound: C1=CC=C(C=C1)C2=NC(=C(N2)C3=CC=NC=C3)C4=CC(=C(C=C4)Cl)O
How it was run: as §1

[7] = compound: C1=CC=C2C(=C1)C3=NNC4=CC=CC(=C43)C2=O
How it was run: as §1

[8] = compound: C1CCN(C1)C(=O)NC2=CC=CC(=C2)NC3=NC=C(C(=N3)NCCC4=CN=CN4)Br
How it was run: as §1

[9] = compound: C1CN(CCC1(CC2=CC=C(C=C2)Cl)N)C3=NC=NC4=C3C=CN4
How it was run: as §1

IRAK-1-4 Inhibitor I = compound: C1COCCN1CCN2C3=CC=CC=C3N=C2NC(=O)C4=CC(=CC=C4)[N+](=O)[O-] [IRAK-1-4 Inhibitor I]
How it was run: as §1

ibrutinib = compound: C=CC(=O)N1CCC[C@@H](n2nc(-c3ccc(Oc4ccccc4)cc3)c3c(N)ncnc32)C1 [ibrutinib]
How it was run: as §1

[10] = compound: CC(=O)c1cnc2ccc(-c3cc(Cl)c(O)c(Cl)c3)nc2c1N[C@H]1CC[C@H](CN(C)C)CC1
How it was run: as §1

ralimetinib = compound: CC(C)(C)Cn1c(N)nc2ccc(-c3[nH]c(C(C)(C)C)nc3-c3ccc(F)cc3)nc21 [ralimetinib]
How it was run: as §1

[11] = compound: CC(C)(O)CC(=O)NCCn1ccc2ncnc(Nc3ccc(Oc4cccc(C(F)(F)F)c4)c(Cl)c3)c21
How it was run: as §1

[12] = compound: CC(C)C1=C2N=C(C=C(N2N=C1)NCC3=CC=CC=C3)NCCCCCCN
How it was run: as §1

[13] = compound: CC(C)C[C@@H](C=O)NC(=O)[C@H](CC(C)C)NC(=O)[C@H](CC(C)C)NC(=O)OCc1ccccc1
How it was run: as §1

pinometostat = compound: CC(C)N(C[C@H]1O[C@@H](n2cnc3c(N)ncnc32)[C@H](O)[C@@H]1O)[C@H]1C[C@@H](CCc2nc3cc(C(C)(C)C)ccc3[nH]2)C1 [pinometostat]
How it was run: as §1

[14] = compound: CC1=C(C(CC(=O)N1)C2=CC=C(C=C2)C(F)(F)F)C(=O)NC3=C(C=C4C(=C3)C=NN4)F
How it was run: as §1

[15] = compound: CC1=C(C2=C(C=C1)C(=O)C3=CC=CC=C3N2CCCN)C
How it was run: as §1

Measured: log2 fold change

WRAP73 (UniProt Q9P2S5)
inactive: erlotinib -0.08 | [1] 0.02 | [2] -0.012 | [3] 0.053 | [4] -0.051 | [5] 0.134 | [6] 0.039 | [7] -0.005 | [8] -0.018 | [9] 0.041 | IRAK-1-4 Inhibitor I 0.055 | ibrutinib 0.014 | [10] -0.019 | ralimetinib -0.045 | [11] -0.02 | [12] 0.126 | [13] 0.024 | pinometostat -0.009 | [14] 0.01 | [15] 0

WDR12 (UniProt Q9GZL7)
inactive: erlotinib -0.004 | [1] 0.015 | [2] 0.031 | [3] -0.02 | [4] 0.018 | [5] 0.015 | [6] -0.018 | [7] -0.032 | [8] 0.023 | [9] 0.015 | IRAK-1-4 Inhibitor I 0.03 | ibrutinib -0.011 | [10] -0.044 | ralimetinib -0.059 | [11] 0.004 | [12] 0.004 | [13] -0.026 | pinometostat -0.026 | [14] 0.064 | [15] -0.064

VTN (UniProt P04004)
inactive: erlotinib -0.029 | [1] -0.153 | [2] -0.035 | [3] 0.093 | [4] 0.092 | [5] 0 | [6] 0.015 | [7] -0.095 | [8] 0.084 | [9] 0.048 | IRAK-1-4 Inhibitor I -0.057 | ibrutinib 0.09 | [10] 0.103 | ralimetinib -0.087 | [11] 0.222 | [12] 0.101 | [13] 0.238 | pinometostat -0.038 | [14] 0.012 | [15] -0.212

WDR44 (UniProt Q5JSH3)
inactive: erlotinib 0.008 | [1] 0.01 | [2] 0.089 | [3] -0.002 | [4] 0.02 | [5] 0.002 | [6] -0.017 | [7] -0.009 | [8] 0.021 | [9] 0.073 | IRAK-1-4 Inhibitor I 0.018 | ibrutinib 0.022 | [10] -0.005 | ralimetinib -0.067 | [11] 0.002 | [12] 0.053 | [13] -0.001 | pinometostat -0.049 | [14] 0.002 | [15] 0.015

WDR55 (UniProt Q9H6Y2)
inactive: erlotinib -0.026 | [1] 0.037 | [2] 0.015 | [3] 0.009 | [4] 0.035 | [5] 0.008 | [6] 0.007 | [7] 0.007 | [8] -0.005 | [9] 0.053 | IRAK-1-4 Inhibitor I 0.014 | ibrutinib -0.007 | [10] -0.028 | ralimetinib -0.031 | [11] 0.056 | [12] 0.004 | [13] -0.015 | pinometostat -0.029 | [14] -0.001 | [15] -0.039

WDR20 isoform 7 (UniProt Q8TBZ3)
inactive: erlotinib 0.014 | [1] 0.019 | [2] -0.044 | [3] 0.068 | [4] 0.05 | [5] 0.194 | [6] 0.012 | [7] -0.152 | [8] -0.038 | [9] 0.015 | IRAK-1-4 Inhibitor I -0.069 | ibrutinib -0.026 | [10] -0.061 | ralimetinib 0.015 | [11] 0.156 | [12] 0.013 | [13] 0.006 | pinometostat 0.034 | [14] 0.031 | [15] 0.104

WARS (UniProt P23381)
inactive: erlotinib 0.02 | [1] -0.031 | [2] 0.023 | [3] -0.021 | [4] -0.023 | [5] 0.013 | [6] 0.04 | [7] 0.011 | [8] 0.011 | [9] 0.021 | IRAK-1-4 Inhibitor I 0.096 | ibrutinib 0.028 | [10] 0.026 | ralimetinib 0.039 | [11] 0.001 | [12] 0.068 | [13] -0.01 | pinometostat -0.013 | [14] 0.012 | [15] 0.022

Quoted at random: 2 records from the list.
WDR44 (UniProt Q5JSH3)
inactive: erlotinib 0.008 | [1] 0.01 | [2] 0.089 | [3] -0.002 | [4] 0.02 | [5] 0.002 | [6] -0.017 | [7] -0.009 | [8] 0.021 | [9] 0.073 | IRAK-1-4 Inhibitor I 0.018 | ibrutinib 0.022 | [10] -0.005 | ralimetinib -0.067 | [11] 0.002 | [12] 0.053 | [13] -0.001 | pinometostat -0.049 | [14] 0.002 | [15] 0.015

WRAP73 (UniProt Q9P2S5)
inactive: erlotinib -0.08 | [1] 0.02 | [2] -0.012 | [3] 0.053 | [4] -0.051 | [5] 0.134 | [6] 0.039 | [7] -0.005 | [8] -0.018 | [9] 0.041 | IRAK-1-4 Inhibitor I 0.055 | ibrutinib 0.014 | [10] -0.019 | ralimetinib -0.045 | [11] -0.02 | [12] 0.126 | [13] 0.024 | pinometostat -0.009 | [14] 0.01 | [15] 0

Further results follow:

VRK3 (UniProt Q8IV63)
inactive: erlotinib 0.048 | [1] 0.033 | [2] 0.019 | [3] -0.089 | [4] -0.068 | [5] -0.093 | [6] 0.162 | [7] -0.026 | [8] -0.179 | [9] 0.123 | IRAK-1-4 Inhibitor I 0.049 | ibrutinib 0.016 | [10] -0.239 | ralimetinib 0.082 | [11] -0.065 | [12] -0.145 | [13] -0.2 | pinometostat 0.02 | [14] -0.038 | [15] -0.059

WDR92 (UniProt Q96MX6)
inactive: erlotinib -0.122 | [1] 0.07 | [2] -0.074 | [3] 0.112 | [4] 0 | [5] -0.066 | [6] -0.015 | [7] -0.13 | [8] -0.065 | [9] -0.136 | IRAK-1-4 Inhibitor I -0.022 | ibrutinib 0.041 | [10] -0.04 | ralimetinib 0.037 | [11] -0.111 | [12] -0.026 | [13] 0.02 | pinometostat 0.091 | [14] -0.085 | [15] 0.032

VPS39 (UniProt Q96JC1)
inactive: erlotinib -0.006 | [1] 0.08 | [2] -0.005 | [3] 0.022 | [4] 0 | [5] 0.023 | [6] -0.014 | [7] -0.046 | [8] 0.01 | [9] 0.054 | IRAK-1-4 Inhibitor I -0.055 | ibrutinib -0.015 | [10] -0.036 | ralimetinib -0.018 | [11] -0.039 | [12] -0.265 | [13] 0.031 | pinometostat 0.032 | [15] 0.008

WBP2 (UniProt Q969T9)
inactive: erlotinib 0.015 | [1] 0.045 | [2] -0.027 | [3] 0.024 | [4] -0.105 | [5] -0.03 | [6] 0.02 | [7] -0.005 | [8] -0.019 | [9] -0.002 | IRAK-1-4 Inhibitor I 0.042 | ibrutinib 0.081 | [10] 0.082 | ralimetinib -0.045 | [11] -0.019 | [12] -0.012 | [13] 0.004 | pinometostat -0.012 | [14] -0.006 | [15] -0.071

VPS26C (UniProt O14972)
inactive: erlotinib -0.05 | [1] 0.098 | [2] 0.025 | [3] 0.018 | [4] 0.018 | [5] 0.011 | [6] -0.069 | [7] 0.008 | [8] -0.099 | [9] 0.078 | IRAK-1-4 Inhibitor I -0.109 | ibrutinib 0.071 | [10] -0.042 | ralimetinib -0.015 | [11] -0.05 | [12] -0.073 | [13] 0.051 | pinometostat 0.046 | [14] 0.197 | [15] 0.046

VPS13D (UniProt Q5THJ4)
inactive: erlotinib -0.041 | [1] -0.369 | [2] -0.195 | [3] 0.008 | [4] 0.334 | [5] -0.093 | [6] 0.034 | [7] 0.007 | [8] -0.142 | [9] -0.076 | IRAK-1-4 Inhibitor I -0.201 | ibrutinib -0.025 | [10] -0.108 | ralimetinib 0.076 | [11] 0.067 | [12] 0.286 | [13] 0.087 | pinometostat 0.254 | [14] 0.011 | [15] 0.006

WDR48 (UniProt Q8TAF3)
inactive: erlotinib 0.015 | [1] 0 | [2] 0.01 | [3] -0.002 | [4] -0.011 | [5] 0.033 | [6] -0.02 | [7] -0.039 | [8] -0.012 | [9] 0.042 | IRAK-1-4 Inhibitor I 0.029 | ibrutinib 0.019 | [10] 0 | ralimetinib -0.041 | [11] 0.063 | [12] 0.058 | [13] -0.024 | pinometostat -0.048 | [14] -0.002 | [15] 0.031

VPS25 (UniProt Q9BRG1)
inactive: erlotinib -0.011 | [1] 0.101 | [2] 0.1 | [3] -0.012 | [4] 0.066 | [5] 0.015 | [6] 0.037 | [7] 0.04 | [8] 0.01 | [9] 0.011 | IRAK-1-4 Inhibitor I 0.005 | ibrutinib -0.022 | [10] -0.046 | ralimetinib -0.06 | [11] -0.068 | [12] 0.022 | [13] -0.055 | pinometostat -0.034 | [14] 0 | [15] 0.07

WIPI2 (UniProt Q9Y4P8)
inactive: erlotinib 0.047 | [1] 0.051 | [2] 0 | [3] 0.026 | [4] 0.046 | [5] -0.126 | [6] 0.043 | [7] -0.061 | [8] 0.005 | [9] 0.054 | IRAK-1-4 Inhibitor I 0.037 | ibrutinib -0.006 | [10] -0.055 | ralimetinib -0.055 | [11] 0.053 | [12] 0.022 | [13] -0.023 | pinometostat 0.049 | [14] 0.016 | [15] 0.006
